These are yes or no findings as the source states them, for the method shown. In cells and extracts the contact can be indirect. Binding can be weak; no strength is given.
Experiments:
[1] = molecular target: endogenous SET (mouse (endogenous in adult mouse brain slices)) (UniProt Q9EQU5); experiment: co-IP; lysates of adult mouse brain slices incubated 5 h 30 min with or without recombinant SET (4 μM); IP with polyclonal anti-SET (recognises endogenous and recombinant SET) and protein A Sepharose, overnight 4°C; Hepes 10 mM, NaCl 150 mM, CaCl2 2 mM, Triton X-100 1% pH 7.4; blot for total PP2A C subunit, then methyl-PP2A after stripping
[2] = molecular target: recombinant HA-tagged SET protein fused to the Penetratin vector (human) (UniProt Q01105); experiment: as above

The chains behind the UniProt entries cited, without tags or fusion partners. Where a name states a change or a piece, a line headed by the entry shows the natural chain unless it says otherwise.
UniProt Q9EQU5: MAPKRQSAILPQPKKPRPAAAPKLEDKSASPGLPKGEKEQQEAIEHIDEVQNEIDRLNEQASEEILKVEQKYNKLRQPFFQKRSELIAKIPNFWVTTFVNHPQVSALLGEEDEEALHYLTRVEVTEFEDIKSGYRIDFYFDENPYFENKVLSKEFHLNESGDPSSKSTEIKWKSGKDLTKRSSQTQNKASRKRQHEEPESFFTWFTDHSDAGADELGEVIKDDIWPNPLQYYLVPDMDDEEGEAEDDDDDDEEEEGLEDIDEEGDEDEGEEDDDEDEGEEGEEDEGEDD
UniProt Q01105: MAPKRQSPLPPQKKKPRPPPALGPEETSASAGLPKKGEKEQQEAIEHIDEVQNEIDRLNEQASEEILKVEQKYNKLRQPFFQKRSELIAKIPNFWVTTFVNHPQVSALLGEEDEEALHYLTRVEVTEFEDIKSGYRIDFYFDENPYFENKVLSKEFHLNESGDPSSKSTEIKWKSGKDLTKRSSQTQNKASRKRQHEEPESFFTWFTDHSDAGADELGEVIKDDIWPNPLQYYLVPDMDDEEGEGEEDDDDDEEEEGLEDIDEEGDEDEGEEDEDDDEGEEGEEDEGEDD
UniProt P63330: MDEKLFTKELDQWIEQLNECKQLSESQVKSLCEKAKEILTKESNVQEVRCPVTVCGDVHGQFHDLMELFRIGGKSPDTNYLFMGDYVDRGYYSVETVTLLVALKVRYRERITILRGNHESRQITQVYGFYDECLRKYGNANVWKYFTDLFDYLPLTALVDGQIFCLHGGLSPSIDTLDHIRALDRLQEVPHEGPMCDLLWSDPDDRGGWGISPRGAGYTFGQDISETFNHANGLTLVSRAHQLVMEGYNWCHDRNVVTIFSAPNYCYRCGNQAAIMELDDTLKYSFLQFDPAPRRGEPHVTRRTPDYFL

Substance: PP2A (total PP2A, detected with an anti-PP2A C subunit antibody) (from UniProt P63330) (enzyme)
- binding [1]: binds
- binding [2]: binds

Reference: PMC4086270
